Values of other authors, collected in patent publication US6569459B2, “Method of administration of paclitaxel-plasma protein formulation” (Teva Pharmaceutical Industries, Ltd., priority 2000, dated 2003).

Structure (SMILES): CC(=O)O[C@H]1C(=O)[C@@]2(C)[C@H]([C@H](OC(=O)c3ccccc3)[C@]3(O)C[C@H](OC(=O)[C@H](O)[C@@H](NC(=O)c4ccccc4)c4ccccc4)C(C)=C1C3(C)C)[C@]1(OC(C)=O)CO[C@@H]1C[C@@H]2O [Paclitaxel]
- water solubility: substantially water insoluble
